Measured values as given in publication PMC5386534.
Results are given in words; binding and its absence hold for the method and conditions named. Binding seen in cells or lysates may run through a third protein. Some results given as binding are weak or reduced against the parent protein; the word gives no strength. Blank lines part the entries; values can stand above or below the molecule they belong to.

By UniProt entry, the sequences of proteins in these tests, tags left out.
UniProt P10415: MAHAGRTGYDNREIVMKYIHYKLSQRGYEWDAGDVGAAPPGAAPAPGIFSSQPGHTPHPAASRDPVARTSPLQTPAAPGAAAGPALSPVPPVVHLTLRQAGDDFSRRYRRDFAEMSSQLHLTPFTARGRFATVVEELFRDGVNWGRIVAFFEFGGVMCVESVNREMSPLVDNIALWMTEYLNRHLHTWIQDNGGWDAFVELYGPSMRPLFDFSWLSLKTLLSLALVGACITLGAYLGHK
UniProt O00327: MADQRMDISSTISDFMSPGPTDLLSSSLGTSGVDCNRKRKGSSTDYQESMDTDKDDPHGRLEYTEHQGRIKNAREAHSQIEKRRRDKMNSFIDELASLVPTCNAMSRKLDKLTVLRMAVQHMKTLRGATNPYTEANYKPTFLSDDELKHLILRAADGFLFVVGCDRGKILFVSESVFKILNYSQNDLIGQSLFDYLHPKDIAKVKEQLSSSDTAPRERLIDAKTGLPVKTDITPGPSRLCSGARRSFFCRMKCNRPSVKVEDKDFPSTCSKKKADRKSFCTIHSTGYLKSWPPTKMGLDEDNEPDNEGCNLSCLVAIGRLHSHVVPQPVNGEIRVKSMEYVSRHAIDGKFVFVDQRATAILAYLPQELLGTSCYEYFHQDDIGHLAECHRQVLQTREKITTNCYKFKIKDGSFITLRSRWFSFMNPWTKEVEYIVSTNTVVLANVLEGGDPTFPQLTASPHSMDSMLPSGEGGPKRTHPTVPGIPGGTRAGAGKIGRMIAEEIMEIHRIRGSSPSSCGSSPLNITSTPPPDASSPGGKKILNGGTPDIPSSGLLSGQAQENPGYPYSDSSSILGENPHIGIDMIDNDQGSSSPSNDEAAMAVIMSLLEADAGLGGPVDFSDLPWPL

Assays:
[1] = target: T1, Neuronal PAS domain protein 2 (NPAS2) (human (endogenous in HLE)) (UniProt Q99743); assay: co-IP; IP with anti-NPAS2 or anti-BMAL1 antibody from extracts of HLE cells (HCC cells); immunoblot for BMAL1 or NPAS2
T1 sequence: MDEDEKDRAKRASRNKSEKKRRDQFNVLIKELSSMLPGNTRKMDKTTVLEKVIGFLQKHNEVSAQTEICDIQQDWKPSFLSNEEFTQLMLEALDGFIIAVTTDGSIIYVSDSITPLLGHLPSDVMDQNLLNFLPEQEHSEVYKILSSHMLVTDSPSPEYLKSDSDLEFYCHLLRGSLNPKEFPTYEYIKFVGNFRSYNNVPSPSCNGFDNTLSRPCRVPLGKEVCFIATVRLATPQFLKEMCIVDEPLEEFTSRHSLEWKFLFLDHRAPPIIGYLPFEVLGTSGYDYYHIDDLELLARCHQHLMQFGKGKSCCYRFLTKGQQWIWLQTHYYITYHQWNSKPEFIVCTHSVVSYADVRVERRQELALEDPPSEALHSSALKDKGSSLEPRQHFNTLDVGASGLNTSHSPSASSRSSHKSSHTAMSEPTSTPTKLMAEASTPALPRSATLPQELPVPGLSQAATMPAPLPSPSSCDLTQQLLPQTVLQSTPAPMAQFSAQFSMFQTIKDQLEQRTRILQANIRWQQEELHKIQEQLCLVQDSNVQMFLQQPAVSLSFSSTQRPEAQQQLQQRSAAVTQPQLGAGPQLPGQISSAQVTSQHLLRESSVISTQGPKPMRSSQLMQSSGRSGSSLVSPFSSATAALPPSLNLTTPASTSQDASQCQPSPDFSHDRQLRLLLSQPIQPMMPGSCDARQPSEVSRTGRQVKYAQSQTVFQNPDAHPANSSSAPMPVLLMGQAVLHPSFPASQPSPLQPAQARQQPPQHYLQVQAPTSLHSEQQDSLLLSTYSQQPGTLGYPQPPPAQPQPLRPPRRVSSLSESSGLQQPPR

[2] = target: T2, CDC25A (human (endogenous in HLE and HLF)) (UniProt P30304); assay: co-IP; IP with anti-CDC25A or anti-Bcl-2 antibody (control IgG) from extracts of HLE and HLF cells; immunoblot for Bcl-2 or CDC25A
T2 sequence: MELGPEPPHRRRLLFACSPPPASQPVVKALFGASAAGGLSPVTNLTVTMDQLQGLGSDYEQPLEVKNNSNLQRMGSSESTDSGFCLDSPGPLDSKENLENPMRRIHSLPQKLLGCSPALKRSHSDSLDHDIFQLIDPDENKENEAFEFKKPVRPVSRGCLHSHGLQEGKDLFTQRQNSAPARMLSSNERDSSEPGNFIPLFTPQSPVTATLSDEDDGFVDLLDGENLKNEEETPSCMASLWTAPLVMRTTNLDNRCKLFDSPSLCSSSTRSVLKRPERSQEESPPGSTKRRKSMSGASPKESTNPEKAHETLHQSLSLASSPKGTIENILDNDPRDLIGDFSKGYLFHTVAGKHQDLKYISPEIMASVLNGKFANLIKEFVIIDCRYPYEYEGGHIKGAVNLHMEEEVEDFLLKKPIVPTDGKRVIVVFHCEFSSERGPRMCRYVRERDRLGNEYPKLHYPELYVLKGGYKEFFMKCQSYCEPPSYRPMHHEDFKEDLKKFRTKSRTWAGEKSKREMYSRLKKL

[3] = target: Bcl-2 (human (endogenous in HLE and HLF)) (UniProt P10415); assay: as above

binding [1]: binds
Molecule: BMAL1 (from UniProt O00327 1-626)

binding [2]: binds
Molecule: Bcl-2 (from UniProt P10415 1-239)

binding [3]: binds
B1: CDC25A (enzyme, UniProt P30304 1-524)
chain: T2 sequence
